# Library screening results

By UniProt entry, the sequences of proteins in these tests, tags left out.
UniProt E9BF75, entry or part of it: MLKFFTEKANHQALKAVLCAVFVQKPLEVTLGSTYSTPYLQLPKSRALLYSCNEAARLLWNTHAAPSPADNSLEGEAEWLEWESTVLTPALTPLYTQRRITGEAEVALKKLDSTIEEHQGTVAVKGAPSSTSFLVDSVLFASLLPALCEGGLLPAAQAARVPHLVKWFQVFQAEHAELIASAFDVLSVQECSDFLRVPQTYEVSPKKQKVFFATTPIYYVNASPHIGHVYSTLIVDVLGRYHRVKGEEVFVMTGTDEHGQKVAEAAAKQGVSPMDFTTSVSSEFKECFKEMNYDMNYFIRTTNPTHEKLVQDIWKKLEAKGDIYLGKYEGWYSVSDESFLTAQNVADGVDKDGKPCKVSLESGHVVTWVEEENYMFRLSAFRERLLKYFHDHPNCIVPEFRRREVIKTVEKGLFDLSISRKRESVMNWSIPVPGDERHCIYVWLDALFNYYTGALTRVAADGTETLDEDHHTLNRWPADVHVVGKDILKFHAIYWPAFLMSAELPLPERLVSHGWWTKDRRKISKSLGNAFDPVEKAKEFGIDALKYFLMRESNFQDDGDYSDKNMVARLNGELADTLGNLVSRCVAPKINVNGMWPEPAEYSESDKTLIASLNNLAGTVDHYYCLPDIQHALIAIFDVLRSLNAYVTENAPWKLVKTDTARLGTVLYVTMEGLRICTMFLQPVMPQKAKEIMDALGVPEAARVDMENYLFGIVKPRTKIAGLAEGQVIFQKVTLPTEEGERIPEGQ

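Methionyl-tRNA synthetase (putative), Leishmania donovani (UniProt E9BF75). Primary screen of methionyl-tRNA synthetase; the read-out is not stated. The test concentration is not given. Values are per cent inhibition. Of about 68,000 compounds tested this way, about 24 (0.035%) reached 50% or more in at least one test.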

Results are percentages, as filed.
The record does not define 0% and 100%; most values in the screen are far below 50% and negative numbers occur (in some assays of this library far below -100).
The compounds are a random part of those screened.

* O=C(Nc1cccnc1-n1cncn1)N(C1CCCC1)C1CC1 | 14.75%
* CCOc1ccc2nc(NC(=O)c3c(C(=O)O)cnn3C)sc2c1 | 12.91%
* CC(=O)NCCCNC(=O)N(C)C(C)Cc1ccc(Cl)cc1 (stereo not shown) | 6.266%
* Cn1ccnc1CN1CCN(Cc2cc(-c3ccccc3)no2)CC1 | 17.42%
* CCC(CC)c1nnc(NC(=O)N2CCCC(NC(C)=O)C2)s1 (stereo not shown) | 9.536%
* CC(O)CN1CCC(CNCc2cccc(C(F)(F)F)c2)CC1 (stereo not shown) | 15.03%
* Cc1nnc(SCCC(=O)N(C)Cc2ccc(Cl)s2)[nH]1 | 9.893%
* O=C(NCCO)C1(Cc2cc(-c3ccc(F)cc3F)no2)CCOCC1 | 14.73%
* Nc1nc2c(c(NC(=O)Nc3cccc(Cl)c3)n1)CCCC2 | 2.878%
* CN(C)CC1CSCCCN1S(=O)(=O)Cc1cccc(F)c1 (stereo not shown) | 15.83%
* CCN1CCCc2cc(-c3cncn3C(C)CN3CCOCC3)ccc21 (stereo not shown) | 19.15%
* Cc1cc(S(=O)(=O)N2CCCN3CCCC3C2)ccc1F (stereo not shown) | 16.85%
* Fc1ccccc1CN1C[C@@H]2CN(Cc3cccnc3)CCO[C@@H]2C1 | 9.424%
* CCNC(=O)[C@@H]1C[C@@H](n2cc(CC3CCCCC3)nn2)CN1 | 7.821%
* O=C(O)CN1CCOCC(Cc2ccc(Cl)cc2)C1 (stereo not shown) | 7.767%
* CCN(CC)c1nc(C)cc(C(=O)Nc2cccc(C(N)=O)c2)n1 | 13.98%
* COc1cccc(CNc2nnc(C(C)(C)C)o2)c1OC | 14.52%
* COc1cc(N2CCC3(CC2)CCN(c2cccnc2)C3=O)ncn1 | 17.93%
* O=C(CCn1cncn1)N1CCCC1c1noc(C2CC2)n1 (stereo not shown) | 21.02%
* CC1N(CC2CC2)C(=O)COC12CCN(C(=O)c1cccs1)CC2 (stereo not shown) | 8.696%
* O=C(NCCOc1ccccc1)c1ccc2c(c1)C(=O)NC2=O | 6.122%
* Clc1cccnc1OC1CCNCC1 | 11.93%
* CN(C)CC(=O)Nc1ccc(C(=O)N(C)CCc2cn[nH]c2)cc1 | 7.494%
* O=C(c1cc(F)cc(F)c1)N1C[C@H]2CNC[C@H]2C1 | 11.11%
* CC(=O)N1CCN(C(=O)CN(C)c2ccc(Cl)cn2)CC1 | 10.66%
* Cc1nccn1CCC1CCCCN1Cc1ccncc1 (stereo not shown) | 8.78%
* Cc1nc2c(c(NCCCN3CCOCC3)n1)CCN(C)C2 | 10.87%
* Cc1nnc(NC(=O)CN2CCCC2c2c(C)nn(C)c2C)s1 (stereo not shown) | 19.33%
* CC(C)c1nc(C2CCCN(C(=O)c3ccc4[nH]cnc4c3)C2)no1 (stereo not shown) | 17.36%
* Cc1nc2c(c(C)c1CC(=O)NCc1ccco1)c(=O)[nH]n2C | 26.52%
* OC[C@@H]1CN2CCN(c3ccccn3)C[C@@H]2[C@H]1c1ccccc1 | 4.054%
* Cc1ccccc1CNC(=O)N1CC[C@@H]2CN(C)S(=O)(=O)[C@@H]2CC1 | 1.111%
* FC(F)(F)CN1CCC(CNc2nc3ccccc3o2)C1 (stereo not shown) | 8.6%
* O=C(NC[C@@H]1CCCO1)c1cc(Br)cnc1N1CCCCC1 | 18.06%
* Cc1cc2cccc(C(=O)N3CCOC4(CNCCOC4)C3)c2o1 (stereo not shown) | 3.344%
* O=C(c1cnccn1)N1CCN(CC2CC2)c2ncccc2C1 | 8.357%
* Cc1cc(CS(=O)(=O)NCC2CCCCC2)on1 | 6.183%
* COCCN1CCN(Cc2ccc(Cl)cc2)[C@H]2CS(=O)(=O)C[C@H]21 | 18.68%
* O=C(c1ccncc1)N1CCCn2c(CN3CCCC3)nnc2C1 | 15.93%
* Cc1ccc(N2Cc3nc(=O)n(C(C)C)n3C2=O)cc1 | 9.394%
* CCOC(C)C(=O)N1CCN(S(C)(=O)=O)CC1 (stereo not shown) | 13.77%
* CCn1ncc2c1C(COC)CN(Cc1ccco1)C2 (stereo not shown) | 11.17%
* CCC[C@H]1CN(Cc2ccc(N(C)C)nc2)C[C@@H]1NC(=O)CSC | 8.711%
* CCOCC(O)CN1CCN(C(=O)c2ccc(OC)cc2F)CC1 (stereo not shown) | 10.12%
* Cc1cc(C(=O)N2C[C@@H](C(=O)O)[C@H](C(C)C)C2)cs1 | 16.51%
* Cc1ccc(OC2(C(=O)NC(C)Cc3ccsc3)CCNCC2)cc1 (stereo not shown) | 10.62%
* Cc1c(C(=O)N(C)CC(C)O)sc2nc(C(F)(F)F)ccc12 (stereo not shown) | 7.666%
* CC(C)N1CCO[C@@H]2CN(C(=O)Cc3cccs3)CC[C@@H]2C1 | 17.05%
* COCCNc1cc(-c2ccccc2CCN)c2cc[nH]c2n1 | 38.12%
* Cc1ccc(Br)cc1NC(=O)NC1CCC2(C1)OCCO2 (stereo not shown) | 6.178%
* C[C@H]1CCCCN1CCCNc1nccc(-c2c[nH][nH]c2=O)n1 | 13.83%
* O=S(=O)(NCC1(O)CCOCC1)c1c(F)cccc1F | 12.95%
* Cc1ncc(CNC(=O)c2nn(C)c3c2CS(=O)(=O)CC3)s1 | 12.03%

Some entries from above, unchanged:

- CC(O)CN1CCC(CNCc2cccc(C(F)(F)F)c2)CC1 (stereo not shown) | 15.03%
- FC(F)(F)CN1CCC(CNc2nc3ccccc3o2)C1 (stereo not shown) | 8.6%
- Nc1nc2c(c(NC(=O)Nc3cccc(Cl)c3)n1)CCCC2 | 2.878%
- CCC(CC)c1nnc(NC(=O)N2CCCC(NC(C)=O)C2)s1 (stereo not shown) | 9.536%
- Cc1cc2cccc(C(=O)N3CCOC4(CNCCOC4)C3)c2o1 (stereo not shown) | 3.344%

Measurements from “University of Dundee, Small-Polar-MMV Screening Library” (2021), ChEMBL document CHEMBL3988442.